In US8216786B2, “Genetic polymorphisms associated with cardiovascular diseases, methods of detection and uses thereof” (Celera Corporation, priority 2008, dated 2012):
Further values from the same series stand in other lists.

System: individuals who have previously had an MI
Assay: CARE trial: effect of pravastatin vs placebo on coronary events (endpt1, rmi) by SNP genotype subgroup
Format: in vivo, human
Procedure: In Tables 21-22, the column labeled “Endpoint” indicates whether the endpoint that was analyzed was the primary endpoint of the CARE study (a composite endpoint of fatal coronary event or nonfatal MI, and identified as “endpt1”) or a composite endpoint of confirmed fatal or nonfatal MI (identified as “rmi”). […] As used herein, the term “benefit” (with respect to a preventive or therapeutic drug treatment) is defined as achieving a reduced risk for a disease that the drug is intended to treat or prevent (e.g., CVD such as CHD, particularly MI, or hypertension) by administering the drug treatment, compared with the risk for the disease in the absence of receiving the drug treatment (or receiving a placebo in lieu of the drug treatment) for the same genotype. […] J. […] (1996) New England Journal of Medicine 335: 1001-1009. […] A well-documented MI was one of the enrollment criteria for entry into the CARE study. Patients were enrolled in the CARE trial from 80 participating study centers. […] For the study of CARE described in this Example and shown in Tables 21-22, two endpoints were investigated: the primary endpoint of CARE (a composite endpoint of fatal coronary event or nonfatal MI, and identified as “endpt1” in the Endpoint column of Tables 21-22) and a composite endpoint of confirmed fatal or nonfatal MI (identified as “rmi” in the Endpoint column of Tables 21-22). […] HR stands for Hazard Ratio, which is a concept similar to Odds Ratio (OR). The HR in event-free survival analysis is the effect of an explanatory variable on the hazard or risk of an event. […] In Table 21, p-interaction values were calculated. An interaction (or effect modification) is formed when a third variable modifies the relation between an exposure and outcome. […] Genotype and drug interaction is present when the effect of statins (incidence rate of disease in statin-treated group, as compared to placebo) differs in patients with different genotypes.

[1] = rmi, hCV487868 rs6439132, strata TC + CC
[2] = rmi, hCV487868 rs6439132, strata TT
[3] = rmi, hCV621313 rs471364 C9orf52, strata CC
[4] = rmi, hCV621313 rs471364 C9orf52, strata CT
[5] = rmi, hCV621313 rs471364 C9orf52, strata TT
[6] = rmi, hCV904974 rs439401, strata TC + CC
[7] = rmi, hCV904974 rs439401, strata TT
[8] = rmi, hCV1682755 rs9424977 NEGR1, strata CT + CC
[9] = rmi, hCV1682755 rs9424977 NEGR1, strata TT
[10] = rmi, hCV2195496 rs4982795, strata CC
[11] = rmi, hCV2195496 rs4982795, strata CT + TT
[12] = rmi, hCV2948766 rs4684343 CNTN4, strata AA
[13] = rmi, hCV2948766 rs4684343 CNTN4, strata GA + GG
[14] = rmi, hCV10048483 rs2145270, strata CC
[15] = rmi, hCV10048483 rs2145270, strata CT + TT
[16] = rmi, hCV11231076 rs4857855, strata CC
[17] = rmi, hCV11231076 rs4857855, strata CT + TT
[18] = rmi, hCV11446935 rs2409722 XKR6, strata GG
[19] = rmi, hCV11446935 rs2409722 XKR6, strata GT + TT
[20] = rmi, hCV11466079 rs157580 TOMM40, strata GA + AA
[21] = rmi, hCV11466079 rs157580 TOMM40, strata GG
[22] = rmi, hCV11592758 rs6265 BDNF, strata CC
[23] = rmi, hCV11592758 rs6265 BDNF, strata CT + TT
[24] = rmi, hCV11703905 rs1169301 TCF1, strata CC
[25] = rmi, hCV11703905 rs1169301 TCF1, strata CT + TT
[26] = rmi, hCV11856381 rs2197089, strata AG + AA
[27] = rmi, hCV11856381 rs2197089, strata GG
[28] = rmi, hCV15954645 rs2954029, strata AA
[29] = rmi, hCV15954645 rs2954029, strata AT
[30] = rmi, hCV15954645 rs2954029, strata TT
[31] = rmi, hCV16140621 rs2156552, strata AT + AA
[32] = rmi, hCV16140621 rs2156552, strata TT
[33] = rmi, hCV27480853 rs3766430 SSBP3, strata CC
[34] = rmi, hCV27480853 rs3766430 SSBP3, strata TC + TT
[35] = rmi, hCV28960526 rs6853079 TSPAN5, strata AA
[36] = rmi, hCV28960526 rs6853079 TSPAN5, strata AT + TT
[37] = rmi, hCV29480044 rs10516433 TSPAN5, strata CC
[38] = rmi, hCV29480044 rs10516433 TSPAN5, strata CT + TT
[39] = rmi, hCV29684678 rs10486788, strata CC
[40] = rmi, hCV29684678 rs10486788, strata CG
[41] = rmi, hCV29684678 rs10486788, strata GG
[42] = rmi, hCV30136303 rs6914527, strata GC + CC
[43] = rmi, hCV30136303 rs6914527, strata GG
[44] = rmi, hCV30454150 rs10516434 TSPAN5, strata CC
[45] = rmi, hCV30454150 rs10516434 TSPAN5, strata CT ± TT
[46] = rmi, hCV30534667 rs4996259 MAGI2, strata AG + AA
[47] = rmi, hCV30534667 rs4996259 MAGI2, strata GG
[48] = rmi, hCV30764105 rs12521915 ITGA2, strata CC
[49] = rmi, hCV30764105 rs12521915 ITGA2, strata GC + GG
[50] = rmi, hDV70938014 rs17321515, strata AA
[51] = rmi, hDV70938014 rs17321515, strata AG
[52] = rmi, hDV70938014 rs17321515, strata GG

`CC[C@H](C)C(=O)O[C@H]1C[C@H](O)C=C2C=C[C@H](C)[C@H](CC[C@@H](O)C[C@@H](O)CC(=O)O)[C@H]21` [pravastatin] was tested, and the “NONEVENT (Pravastatin arm)” value (endpt1, hcV15870728 rs2943245 C10orf64, strata CT + TT) was 922, the “EVENTS (Pravastatin arm)” value [1] was 60 and the “NONEVENT (Pravastatin arm)” value [1] was 573. For the same compound, the “EVENTS (Pravastatin arm)” value [2] was 51, the “NONEVENT (Pravastatin arm)” value [2] was 718 and the “EVENTS (Pravastatin arm)” value [3] was 2. The “NONEVENT (Pravastatin arm)” value [3] was 16, the “EVENTS (Pravastatin arm)” value [4] was 20 and the “NONEVENT (Pravastatin arm)” value [4] was 288. The “EVENTS (Pravastatin arm)” value [5] was 89, the “NONEVENT (Pravastatin arm)” value [5] was 984 and the “EVENTS (Pravastatin arm)” value [6] was 101. The “NONEVENT (Pravastatin arm)” value [6] was 1090, the “EVENTS (Pravastatin arm)” value [7] was 10 and the “NONEVENT (Pravastatin arm)” value [7] was 194. The “EVENTS (Pravastatin arm)” value [8] was 73, the “NONEVENT (Pravastatin arm)” value [8] was 941 and the “EVENTS (Pravastatin arm)” value [9] was 38. The “NONEVENT (Pravastatin arm)” value [9] was 347, the “EVENTS (Pravastatin arm)” value [10] was 18 and the “NONEVENT (Pravastatin arm)” value [10] was 266. The “EVENTS (Pravastatin arm)” value [11] was 92, the “NONEVENT (Pravastatin arm)” value [11] was 1020 and the “EVENTS (Pravastatin arm)” value [12] was 25. The “NONEVENT (Pravastatin arm)” value [12] was 244, the “EVENTS (Pravastatin arm)” value [13] was 85 and the “NONEVENT (Pravastatin arm)” value [13] was 1042. For the same compound, the “EVENTS (Pravastatin arm)” value [14] was 22, the “NONEVENT (Pravastatin arm)” value [14] was 187 and the “EVENTS (Pravastatin arm)” value [15] was 89. The “NONEVENT (Pravastatin arm)” value [15] was 1103, the “EVENTS (Pravastatin arm)” value [16] was 65 and the “NONEVENT (Pravastatin arm)” value [16] was 885. For the same compound, the “EVENTS (Pravastatin arm)” value [17] was 46, the “NONEVENT (Pravastatin arm)” value [17] was 405 and the “EVENTS (Pravastatin arm)” value [18] was 39. The “NONEVENT (Pravastatin arm)” value [18] was 325, the “EVENTS (Pravastatin arm)” value [19] was 72 and the “NONEVENT (Pravastatin arm)” value [19] was 960. For the same compound, the “EVENTS (Pravastatin arm)” value [20] was 98, the “NONEVENT (Pravastatin arm)” value [20] was 1081 and the “EVENTS (Pravastatin arm)” value [21] was 13. For the same compound, the “NONEVENT (Pravastatin arm)” value [21] was 207, the “EVENTS (Pravastatin arm)” value [22] was 61 and the “NONEVENT (Pravastatin arm)” value [22] was 880. The “EVENTS (Pravastatin arm)” value [23] was 48, the “NONEVENT (Pravastatin arm)” value [23] was 434 and the “EVENTS (Pravastatin arm)” value [24] was 44. For the same compound, the “NONEVENT (Pravastatin arm)” value [24] was 627, the “EVENTS (Pravastatin arm)” value [25] was 67 and the “NONEVENT (Pravastatin arm)” value [25] was 661. The “EVENTS (Pravastatin arm)” value [26] was 84, the “NONEVENT (Pravastatin arm)” value [26] was 1006 and the “EVENTS (Pravastatin arm)” value [27] was 27. For the same compound, the “NONEVENT (Pravastatin arm)” value [27] was 279, the “EVENTS (Pravastatin arm)” value [28] was 36 and the “NONEVENT (Pravastatin arm)” value [28] was 376. For the same compound, the “EVENTS (Pravastatin arm)” value [29] was 46, the “NONEVENT (Pravastatin arm)” value [29] was 613 and the “EVENTS (Pravastatin arm)” value [30] was 28. The “NONEVENT (Pravastatin arm)” value [30] was 296, the “EVENTS (Pravastatin arm)” value [31] was 30 and the “NONEVENT (Pravastatin arm)” value [31] was 416. The “EVENTS (Pravastatin arm)” value [32] was 81, the “NONEVENT (Pravastatin arm)” value [32] was 876 and the “EVENTS (Pravastatin arm)” value [33] was 30. The “NONEVENT (Pravastatin arm)” value [33] was 262, the “EVENTS (Pravastatin arm)” value [34] was 81 and the “NONEVENT (Pravastatin arm)” value [34] was 1029. For the same compound, the “EVENTS (Pravastatin arm)” value [35] was 60, the “NONEVENT (Pravastatin arm)” value [35] was 796 and the “EVENTS (Pravastatin arm)” value [36] was 51. For the same compound, the “NONEVENT (Pravastatin arm)” value [36] was 495, the “EVENTS (Pravastatin arm)” value [37] was 60 and the “NONEVENT (Pravastatin arm)” value [37] was 795. For the same compound, the “EVENTS (Pravastatin arm)” value [38] was 51, the “NONEVENT (Pravastatin arm)” value [38] was 491 and the “EVENTS (Pravastatin arm)” value [39] was 9. The “NONEVENT (Pravastatin arm)” value [39] was 89, the “EVENTS (Pravastatin arm)” value [40] was 40 and the “NONEVENT (Pravastatin arm)” value [40] was 526. The “EVENTS (Pravastatin arm)” value [41] was 62, the “NONEVENT (Pravastatin arm)” value [41] was 672 and the “EVENTS (Pravastatin arm)” value [42] was 77. For the same compound, the “NONEVENT (Pravastatin arm)” value [42] was 797, the “EVENTS (Pravastatin arm)” value [43] was 34 and the “NONEVENT (Pravastatin arm)” value [43] was 493. For the same compound, the “EVENTS (Pravastatin arm)” value [44] was 60, the “NONEVENT (Pravastatin arm)” value [44] was 799 and the “EVENTS (Pravastatin arm)” value [45] was 51. The “NONEVENT (Pravastatin arm)” value [45] was 489, the “EVENTS (Pravastatin arm)” value [46] was 47 and the “NONEVENT (Pravastatin arm)” value [46] was 667. The “EVENTS (Pravastatin arm)” value [47] was 64, the “NONEVENT (Pravastatin arm)” value [47] was 624 and the “EVENTS (Pravastatin arm)” value [48] was 54. The “NONEVENT (Pravastatin arm)” value [48] was 491, the “EVENTS (Pravastatin arm)” value [49] was 57 and the “NONEVENT (Pravastatin arm)” value [49] was 800. The “EVENTS (Pravastatin arm)” value [50] was 34, the “NONEVENT (Pravastatin arm)” value [50] was 363 and the “EVENTS (Pravastatin arm)” value [51] was 47. For the same compound, the “NONEVENT (Pravastatin arm)” value [51] was 620, the “EVENTS (Pravastatin arm)” value [52] was 30 and the “NONEVENT (Pravastatin arm)” value [52] was 309.
